Data source: PubChem BioAssay AID1259254 (NCATS, 2017)
Here is one part, drawn at random, of about 59,000 deposited reagents. Over the whole deposit, about 1,550 (2.6%) are marked active. 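G2 share is only a proxy for re-replication; each gene was hit by three separate siRNAs, and active genes were retested.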 A number with no mark means an inactive call. The numbers tell different reagents against one gene apart. Further read-outs or replicates are left out here. Not given: the amount of reagent.

- Aim: 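Gene knock-downs that lead to re-replication, shown by excess G2 DNA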 (primary screen)
- Cells: human HCT116 colorectal cancer cells
- Reagents: single siRNA against human genes
- Duration: 3 days
- Measurement: 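Nuclei stained with Hoechst and imaged; cell-cycle phase assigned by DNA content; G2 share scaled per plate, non-targeting siRNA 0%, GMNN siRNA 100%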
- Reading the numbers: G2 robust z-score and G2 cells, % of GMNN control: higher = more G2 cells, more excess DNA replication
- Rule for the call: 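Active siRNAs have a G2 robust z of 5 or more median absolute deviations over the median, which in these data means about 38% or higher of GMNN control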

| gene | reagent no. | G2 robust z-score | G2 cells, % of GMNN control |
| --- | --- | --- | --- |
| POLR1F (GeneID 221830) | 1 | 0.82 | 8.74 |
| POLR1F (GeneID 221830) | 2 | 3.72 | 29.2 |
| POLR1F (GeneID 221830) | 3 | 2.38 | 19.7 |
| KCTD17 (GeneID 79734) | 1 | 0.026 | 3.15 |
| KCTD17 (GeneID 79734) | 2 | 0.0941 | 3.63 |
| KCTD17 (GeneID 79734) | 3 | -0.169 | 1.78 |
| PPBP (GeneID 5473) | 1 | -0.212 | 1.48 |
| PPBP (GeneID 5473) | 2 | -0.54 | -0.833 |
| PPBP (GeneID 5473) | 3 | 0.332 | 5.3 |
| OR10C1 (GeneID 442194) | 1 | -0.155 | 1.87 |
| OR10C1 (GeneID 442194) | 2 | 0.992 | 9.94 |
| OR10C1 (GeneID 442194) | 3 | 0.702 | 7.91 |
| LOC340089 (GeneID 340089) | 1 | 8.84 (active) | 65.1 |
| LOC340089 (GeneID 340089) | 2 | 0.419 | 5.91 |
| LOC340089 (GeneID 340089) | 3 | -0.559 | -0.968 |
| CLEC4C (GeneID 170482) | 1 | 0.764 | 8.34 |
| CLEC4C (GeneID 170482) | 2 | 3.38 | 26.7 |
| CLEC4C (GeneID 170482) | 3 | 0.928 | 9.5 |
| PGBD5 (GeneID 79605) | 1 | 0.177 | 4.21 |
| PGBD5 (GeneID 79605) | 2 | 0.861 | 9.02 |
| PGBD5 (GeneID 79605) | 3 | -0.625 | -1.43 |
| PCDH10 (GeneID 57575) | 1 | 4.46 | 34.3 |
| PCDH10 (GeneID 57575) | 2 | 0.904 | 9.33 |
| PCDH10 (GeneID 57575) | 3 | 0.431 | 6 |
| C11orf16 (GeneID 56673) | 1 | 4.11 | 31.9 |
| C11orf16 (GeneID 56673) | 2 | 1.77 | 15.4 |
| C11orf16 (GeneID 56673) | 3 | 0.602 | 7.2 |
| TTC6 (GeneID 319089) | 1 | -1.11 | -4.86 |
| TTC6 (GeneID 319089) | 2 | -0.89 | -3.29 |
| TTC6 (GeneID 319089) | 3 | 0.886 | 9.2 |
| TTC6 (GeneID 319089) | 4 | 0.631 | 7.4 |
| TTC6 (GeneID 319089) | 5 | -0.658 | -1.66 |
| TTC6 (GeneID 319089) | 6 | 0.362 | 5.51 |
| FHL3 (GeneID 2275) | 1 | 0.922 | 9.46 |
| FHL3 (GeneID 2275) | 2 | 0.298 | 5.06 |
| FHL3 (GeneID 2275) | 3 | -0.286 | 0.958 |
| ATOSB (GeneID 80256) | 1 | -0.235 | 1.32 |
| ATOSB (GeneID 80256) | 2 | 0.0721 | 3.47 |
| ATOSB (GeneID 80256) | 3 | 0.369 | 5.56 |
| ZFAND1 (GeneID 79752) | 1 | 0.238 | 4.64 |
| ZFAND1 (GeneID 79752) | 2 | 0.287 | 4.98 |
| ZFAND1 (GeneID 79752) | 3 | 5.91 (active) | 44.6 |
| P2RX2 (GeneID 22953) | 1 | -0.496 | -0.519 |
| P2RX2 (GeneID 22953) | 2 | 2.22 | 18.6 |
| P2RX2 (GeneID 22953) | 3 | 0.333 | 5.31 |
| LINC00173 (GeneID 100287569) | 1 | -0.548 | -0.889 |
| LINC00173 (GeneID 100287569) | 2 | 1.71 | 15 |
| LINC00173 (GeneID 100287569) | 3 | 0.672 | 7.69 |
| HSD17B14 (GeneID 51171) | 1 | 0.149 | 4.02 |
| HSD17B14 (GeneID 51171) | 2 | 6.25 (active) | 47 |
| HSD17B14 (GeneID 51171) | 3 | 1.65 | 14.6 |
| TAFA3 (GeneID 284467) | 1 | -0.201 | 1.55 |
| TAFA3 (GeneID 284467) | 2 | 1.25 | 11.8 |
| TAFA3 (GeneID 284467) | 3 | -0.63 | -1.47 |
| ABCG1 (GeneID 9619) | 1 | 1.11 | 10.8 |
| ABCG1 (GeneID 9619) | 2 | -1.19 | -5.42 |
| ABCG1 (GeneID 9619) | 3 | -0.15 | 1.91 |
| RAB17 (GeneID 64284) | 1 | -1.21 | -5.57 |
| RAB17 (GeneID 64284) | 2 | -1.43 | -7.1 |
| RAB17 (GeneID 64284) | 3 | -0.207 | 1.51 |
| MAP3K7 (GeneID 6885) | 1 | -1.23 | -5.7 |
| MAP3K7 (GeneID 6885) | 2 | -0.458 | -0.256 |
| MAP3K7 (GeneID 6885) | 3 | -0.496 | -0.523 |
| CDRT15P13 (GeneID 642669) | 1 | 0.432 | 6 |
| CDRT15P13 (GeneID 642669) | 2 | 1.97 | 16.8 |
| CDRT15P13 (GeneID 642669) | 3 | 2.24 | 18.7 |
| RAPH1 (GeneID 65059) | 1 | 0.616 | 7.3 |
| RAPH1 (GeneID 65059) | 2 | 1.36 | 12.5 |
| RAPH1 (GeneID 65059) | 3 | 0.265 | 4.83 |

An excerpt from above, reduced to “G2 robust z-score”.
FHL3 (GeneID 2275) #2 = 0.298
FHL3 (GeneID 2275) #3 = -0.286
ATOSB (GeneID 80256) #1 = -0.235
ATOSB (GeneID 80256) #2 = 0.0721
ATOSB (GeneID 80256) #3 = 0.369
ZFAND1 (GeneID 79752) #1 = 0.238
ZFAND1 (GeneID 79752) #2 = 0.287
ZFAND1 (GeneID 79752) #3 = 5.91 (active)
P2RX2 (GeneID 22953) #1 = -0.496
P2RX2 (GeneID 22953) #2 = 2.22
P2RX2 (GeneID 22953) #3 = 0.333
LINC00173 (GeneID 100287569) #1 = -0.548
